Earlier results on one molecule are cited in US20240238214A1, “NANOCONSTRUCTS AND NANOPARTICLE-MEDIATED DELIVERY OF IMMUNOGENIC CELL DEATH INDUCERS FOR ENHANCING CANCER IMMUNOTHERAPY” (Purdue Research Foundation, priority 2021, published 2024).

The conditions of the data set: cited from earlier work.

In the case of `CC(=O)O[C@H]1C(=O)[C@@]2(C)[C@H]([C@H](OC(=O)c3ccccc3)[C@]3(O)C[C@H](OC(=O)[C@H](O)[C@@H](NC(=O)c4ccccc4)c4ccccc4)C(C)=C1C3(C)C)[C@]1(OC(C)=O)CO[C@@H]1C[C@@H]2O` [PTX, paclitaxel], the water solubility was 8.5 to 17 µg/mL.
